AC50 data for 54 compounds are collected here from PubChem BioAssay AID1487 (National Center for Advancing Translational Sciences (NCATS), 2009).

This assay is described as follows: qHTS Assay for Modulators of Lamin A Splicing. The conditions noted are these: HeLa LMNA splicing GFP/RFP minigene ratio, 48 h. The essentials:
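S3 HeLa cells stably expressing lamin A-EGFP splicing minigene plus DsRed2, 600 cells/well, 48 h compound exposure at 37C. Laser-scanning cytometry; analysed as GFP (500-530 nm)/RFP (575-640 nm) total intensity ratio; 0.5% DMSO vehicle.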

[1] abbreviates: measured here: RFP viability control channel.
[2] abbreviates: measured here: GFP splicing reporter channel.

The structures appear in SMILES notation. Several values for one entry are separate records, joined by “and”; a condition that tells them apart may be missing. Equal entries are not always repeated. Some of the results follow. The main result of the screen is listed elsewhere. These columns were measured beside it and carry no call. Most of these compounds were active or inconclusive in the main read-out, so they are no random draw. The note in brackets gives the kind of curve behind each potency; many fits are weak.

As usually defined, the AC50 is the concentration giving half of the maximal activity seen. In the case of `CC(C(=O)N1c2ccccc2CCc2ccccc21)n1nnc(-c2ccc(N(C)C)cc2)n1` (stereo not drawn), the AC50 under setting [1] is 11.2 µM [rising, partial curve, poor fit]. As to `CCOC(=O)[C@H](CCc1ccccc1)N[C@@H](C)C(=O)N1CCC[C@H]1C(=O)O`, the AC50 was 0.00316 µM [falling, full curve, poor fit] under setting [2]; 3.16 µM [falling, single point] and 22.4 nM [falling, full curve, poor fit] under setting [1]. For `CCn1c(=O)cc(SCC(=O)NCc2ccc(Cl)cc2)c2ccccc21`, the AC50 under setting [1] was 12.6 µM [rising, partial curve, poor fit].

For `CCC(c1nnnn1C1CCCC1)N1CCN(c2cccc(OC)c2)CC1` (stereo not drawn), the AC50 under setting [2] was 4.47 µM [falling, full curve, poor fit].

On to `COc1ccccc1CCC(=O)Nc1nc2ccccc2[nH]1`, for which, under setting [1], the AC50 was 35.5 µM [rising, single point]. For the compound `O=C(c1ccc(S(=O)(=O)N2CCCCC2)cc1)N1CCN(Cc2ccc3c(c2)OCO3)CC1`, the AC50 runs as follows: under setting [2], 6.31 µM [rising, full curve, poor fit]; under setting [1], 12.6 µM [rising, partial curve]. In the case of `C=CCc1cccc([C@@H]2[C@@H](C)CC[C@H]3C(=O)N4[C@@H](c5cc(OC)c(OC)c(OC)c5)c5[nH]c6ccccc6c5C[C@H]4C(=O)N23)c1`, the AC50 by setting is: under setting [2], 35.5 µM [falling, single point]; under setting [1], 35.5 µM [falling, single point]. With `Cc1c(O)nc(SCC(=O)Nc2ccc3c4c(cccc24)CC3)n(-c2ccccc2)c1=O`, the AC50 was 14.1 µM [rising, partial curve] under setting [2] and 22.4 µM [rising, partial curve, poor fit] under setting [1].

With `COc1ccc(CCN(C)c2ncnc3sccc23)cc1OC`, the half-maximal activity concentration (AC50) under setting [1] is 12.6 µM [rising, single point]. As for `COc1ccc(S(=O)(=O)Nc2ccc(F)c(F)c2)cc1Cl`, the half-maximal activity concentration (AC50) under setting [1] was 11.2 µM [rising, partial curve]. On to `Cc1ccccc1-c1nc(CN2CCC(C(=O)NCC3CCCO3)CC2)c(C)o1` (stereo not drawn), for which the AC50 under setting [2] is 14.1 µM [rising, single point]. Regarding `CC1CCN(S(=O)(=O)c2ccc3c(ccc(=O)n3CC(=O)NCc3ccccc3Cl)c2)CC1`, the concentration at half-maximal activity (AC50) under setting [2] was 35.5 µM [falling, single point] and the AC50 under setting [1] is 35.5 µM [falling, single point].

As for `CC(=O)c1c(C)nc2sc3c(=N)n(N)cnc3c2c1-c1ccc(Cl)cc1`, the half-maximal activity concentration (AC50) under setting [1] is 3.16 µM [rising, single point].

`O=C(Cn1cnc2c(nnn2-c2ccc(F)cc2)c1=O)N1CCCc2ccccc21`: the AC50 under setting [2] was 15.8 µM [rising, single point].

`Cc1ccc(Cl)cc1N1CCN(c2cccc[n+]2C)CC1`: the half-maximal activity concentration (AC50) under setting [1] was 11.2 µM [rising, partial curve, poor fit].

Regarding `CCOC(=O)c1[nH]c(C)c(CCC(=O)Nc2ccccc2C(=O)OC)c1C`, the AC50 under setting [1] was 3.55 µM [rising, partial curve, poor fit]. Same read-out and setting: in the case of `Cc1ccc(C2CCN(C(=O)Nc3ccc(Cl)c(Cl)c3)C2)cc1` (stereo not drawn) it was 15.8 µM [rising, single point]. With `O=C1NC(=O)/C(=C\c2ccccc2Oc2ccc(F)c(F)c2)S1`, the AC50 by setting is: under setting [2], 11.2 µM [rising, partial curve]; under setting [1], 12.6 µM [rising, partial curve]. For `Cc1ccc2c(nc3s/c(=C/c4cccs4)c(=O)n32)c1C`, under setting [1], the AC50 was 35.5 µM [rising, single point]. For `NS(=O)(=O)c1ccc(NCc2cc(Cl)ccc2OCc2ccc(F)cc2)cc1`, the AC50 under setting [1] was 12.6 µM [rising, partial curve].

Take `O=C(CCS(=O)(=O)c1ccc(Br)s1)N1CCc2ccccc21`: the half-maximal activity concentration (AC50) under setting [1] was 35.5 µM [rising, single point]. For `C=CCOc1cccc(/C=N/NC(=O)CN(c2cc(Cl)ccc2OC)S(=O)(=O)c2ccc(C)c([N+](=O)[O-])c2)c1`, under setting [1], the AC50 is 12.6 µM [rising, partial curve]. For `Cc1cccc(CSc2nc(=O)c3c(n2C)NC(=O)CC3c2cc(F)cc(F)c2)c1` (stereo not drawn), under setting [1], the AC50 is 15.8 µM [rising, single point].

Take `O=C(Nc1ccc(N2CCOCC2)cc1)c1ccc(-c2ccccc2[N+](=O)[O-])o1`: the concentration at half-maximal activity (AC50) reads like this: under setting [2], 15.8 µM [falling, single point]; under setting [1], 6.31 µM [falling, partial curve]. For the compound `COc1ccc(OC)c(C(=O)COC(=O)c2ccccc2O)c1`, under setting [2], the half-maximal activity concentration (AC50) was 11.2 µM [rising, single point].

For the compound `CCOC(=O)/C(=C\c1ccc(C)cc1)NC(=O)c1ccccc1`, under setting [1], the AC50 was 35.5 µM [rising, single point]. For `Cc1ccccc1C(=O)NC(=S)NC1CCSC1=O` (stereo not drawn), the AC50 under setting [2] was 1.26 µM [rising, partial curve, poor fit] and the AC50 under setting [1] was 17.8 µM [rising, single point]. On to `Cc1ccc(C2CC(=O)C=C(Nc3ccc(Cl)cc3)C2)cc1` (stereo not drawn), for which the AC50 under setting [1] is 14.1 µM [rising, partial curve, poor fit]. Take `COc1ccc(Cc2nn3c(-c4cc(OC)c(OC)c(OC)c4)nnc3s2)cc1`: the concentration at half-maximal activity (AC50) under setting [1] is 31.6 µM [rising, single point]. Take `O=C(COc1ccc(/C=N/NC(=O)c2cc3ccccc3o2)cc1Br)Nc1ccccc1`: the AC50 reads like this: under setting [2], 3.55 µM [falling, full curve]; under setting [1], 4.47 µM [falling, full curve]. With `CCOC(=O)N1CCN(c2c(NCc3ccc(Cl)cc3)c(=O)c2=O)CC1`, under setting [1], the AC50 is 3.55 µM [rising, single point]. For the compound `O=C(/C=C/c1c(F)cccc1Cl)Nc1nc2ccccc2[nH]1`, the AC50 under setting [2] was 6.31 µM [rising, partial curve]. For `C=C(C)C(=O)Nc1nnc(-c2cccs2)s1`, the half-maximal activity concentration (AC50) under setting [1] is 12.6 µM [rising, partial curve].

Take `CC(C)(C)c1nc2ccccc2c2nnc(SCC(=O)NCc3ccco3)n12`: under setting [2], the AC50 is 11.2 µM [rising, partial curve, poor fit]. Take `O=c1[nH]c2ccccc2n1CCCSCCCn1c(=O)[nH]c2ccccc21`: the AC50 by setting is: under setting [2], 8.91 µM [rising, partial curve, poor fit]; under setting [1], 20 µM [rising, partial curve].

As to `CCC1Oc2ccccc2N(CC(=O)NCc2cc(OC)ccc2OC)C1=O` (stereo not drawn), the AC50 under setting [2] is 20 µM [rising, partial curve, poor fit] and the half-maximal activity concentration (AC50) under setting [1] was 11.2 µM [rising, partial curve, poor fit].

On to `O=C(COC(=O)/C=C/C(=O)OCC(=O)NC12CC3CC(CC(C3)C1)C2)NC12CC3CC(CC(C3)C1)C2`, for which the AC50 under setting [2] is 0.01 µM [falling, full curve, poor fit] and the half-maximal activity concentration (AC50) under setting [1] was 0.0112 µM [falling, full curve, poor fit].

Take `O=C(c1ccc(C(F)(F)F)cc1)C1CCCN(C(=O)CCN2CCCO2)C1` (stereo not drawn): under setting [2], the AC50 was 35.5 µM [falling, single point].

Regarding `CC1CCN(c2nnc(N)s2)CC1`, under setting [2], the AC50 is 0.0891 µM [rising, full curve, poor fit]. On to `O=C(Nc1nc2ccccc2n1Cc1ccccc1)c1ccco1`, for which, under setting [1], the AC50 was 12.6 µM [rising, partial curve]. Take `OCCCCCNc1ncnc2ccccc12`: the AC50 under setting [2] is 7.94 µM [rising, partial curve] and the AC50 under setting [1] is 8.91 µM [rising, partial curve]. On to `CC1CCCCN1S(=O)(=O)c1ccc(C(=O)Nc2sccc2C(N)=O)cc1` (stereo not drawn), for which the AC50 is, setting by setting: under setting [2], 35.5 µM [rising, single point]; under setting [1], 35.5 µM [rising, single point]. As for `O=C(NC(=S)Nc1ccc(N2CCOCC2)cc1)c1ccc2c(c1)OCCO2`, the half-maximal activity concentration (AC50) runs as follows: under setting [2], 2.51 µM [rising, full curve]; under setting [1], 10 µM [rising, partial curve]. With `CC1CCCN(CC(O)COCc2ccc3c(c2)OCO3)C1` (stereo not drawn), the AC50 under setting [2] was 0.00282 µM [rising, full curve] and the AC50 under setting [1] is 0.02 µM [rising, full curve, poor fit]. Turning to `O=C(CSc1nccn1-c1cccc(Cl)c1)Nc1cccc2ccccc12`, the AC50 under setting [1] is 15.8 µM [falling, partial curve]. Same read-out and setting: to `CN(C)S(=O)(=O)c1cccc(NC(=O)CSc2nc3c(cc2C#N)C(=O)CC(C)(C)C3)c1` belongs 11.2 µM [rising, partial curve]. As for `CN(C)CCCNC(=O)COc1ccc(Br)cc1Cl`, under setting [2], the half-maximal activity concentration (AC50) was 8.91 µM [rising, partial curve]. `COc1cccc(C(=O)Nc2cccc(-c3nc4ncccn4c3C)c2)c1`: the AC50 under setting [2] is 0.631 µM [rising, single point]. Consider `Cn1c(SC2=CS(=O)(=O)c3ccccc32)nc2ccccc21`, for which the AC50 under setting [2] is 6.31 µM [falling, full curve] and the half-maximal activity concentration (AC50) under setting [1] is 7.08 µM [falling, full curve]. Take `O=C(NNC(=S)Nc1cccc(C(F)(F)F)c1)c1ccc(Cl)cc1Cl`: the half-maximal activity concentration (AC50) is 1.78 µM [rising, single point] under setting [2] and 31.6 µM [rising, single point] under setting [1]. As to `O=S(=O)(NCC(Nc1ccc(Cl)cc1)c1ccccc1)c1ccc(Cl)cc1` (stereo not drawn), the AC50 under setting [1] is 14.1 µM [rising, single point].

As for `Cc1ccc2c(c1)C1(C(=O)N2)N2CCCC2C(C(=O)c2ccc3ccccc3c2)C12C(=O)Nc1ccccc12` (stereo not drawn), the concentration at half-maximal activity (AC50) under setting [2] is 35.5 µM [falling, single point] and the AC50 under setting [1] was 8.91 µM [falling, partial curve]. Take `O=C(CN1CCC(NC(=O)c2ccco2)CC1)Nc1ccccc1[N+](=O)[O-]`: the concentration at half-maximal activity (AC50) under setting [2] was 0.0158 µM [falling, full curve, poor fit]. For `Cc1ccc(-c2nc3c4ccccc4n(CC(=O)NCc4ccc(F)cc4)c(=O)n3n2)cc1`, under setting [2], the concentration at half-maximal activity (AC50) was 0.178 µM [rising, full curve, poor fit].
